{"source": "patent US12414969B2", "about": "“Methods and compositions for reducing clostridium difficile infection” (priority 2014, dated 2025)", "origin": "cited, not measured here", "system": "C. difficile infection", "conditions": "after treatment of C. difficile infection; cited from earlier work", "note": "Some results were stated once for a whole list of compounds, not compound by compound.", "data": [{"compound": "CN[C@H](CC(C)C)C(=O)N[C@H]1C(=O)N[C@@H](CC(N)=O)C(=O)N[C@H]2C(=O)N[C@H]3C(=O)N[C@H](C(=O)N[C@H](C(=O)O)c4cc(O)cc(O)c4-c4cc3ccc4O)[C@H](O)c3ccc(c(Cl)c3)Oc3cc2cc(c3O[C@@H]2O[C@H](CO)[C@@H](O)[C@H](O)[C@H]2O[C@H]2C[C@](C)(N)[C@H](O)[C@H](C)O2)Oc2ccc(cc2Cl)[C@H]1O", "note": "[vancomycin]", "values": [{"measurement": "Rates of relapse", "value": "14-35%"}]}]}
